Assay results as given in PMC7478007.

Key:
[1] = target: ETS-related gene 1 (ERG1), endogenous (human (endogenous in MCF-7)); experiment: Re-ChIP; MCF-7 and T47D cells treated with or without TGF-β for 24 h; formaldehyde cross-linked chromatin, sequential immunoprecipitation with indicated antibodies, RhoJ promoter amplified
[2] = target: ETS-related gene 1 (ERG1), endogenous (human (endogenous in MCF-7)); experiment: co-IP; endogenous proteins; MCF-7 cells treated with TGF-β for 24 h, nuclear lysates; immunoprecipitation with indicated antibodies, Western blot

binding [1]: binds | binding [2]: binds
B1: Megakaryocytic leukemia 1 (MKL1), endogenous (protein, UniProt Q969V6 1-931)
chain: MPPLKSPAAFHEQRRSLERARTEDYLKRKIRSRPERSELVRMHILEETSAEPSLQAKQLKLKRARLADDLNEKIAQRPGPMELVEKNILPVESSLKEAIIVGQVNYPKVADSSSFDEDSSDALSPEQPASHESQGSVPSPLEARVSEPLLSATSASPTQVVSQLPMGRDSREMLFLAEQPPLPPPPLLPPSLTNGTTIPTAKSTPTLIKQSQPKSASEKSQRSKKAKELKPKVKKLKYHQYIPPDQKQDRGAPPMDSSYAKILQQQQLFLQLQILNQQQQQHHNYQAILPAPPKSAGEALGSSGTPPVRSLSTTNSSSSSGAPGPCGLARQNSTSLTGKPGALPANLDDMKVAELKQELKLRSLPVSGTKTELIERLRAYQDQISPVPGAPKAPAATSILHKAGEVVVAFPAARLSTGPALVAAGLAPAEVVVATVASSGVVKFGSTGSTPPVSPTPSERSLLSTGDENSTPGDTFGEMVTSPLTQLTLQASPLQILVKEEGPRAGSCCLSPGGRAELEGRDKDQMLQEKDKQIEALTRMLRQKQQLVERLKLQLEQEKRAQQPAPAPAPLGTPVKQENSFSSCQLSQQPLGPAHPFNPSLAAPATNHIDPCAVAPGPPSVVVKQEALQPEPEPVPAPQLLLGPQGPSLIKGVAPPTLITDSTGTHLVLTVTNKNADSPGLSSGSPQQPSSQPGSPAPAPSAQMDLEHPLQPLFGTPTSLLKKEPPGYEEAMSQQPKQQENGSSSQQMDDLFDILIQSGEISADFKEPPSLPGKEKPSPKTVCGSPLAAQPSPSAELPQAAPPPPGSPSLPGRLEDFLESSTGLPLLTSGHDGPEPLSLIDDLHSQMLSSTAILDHPPSPMDTSELHFVPEPSSTMGLDLADGHLDSMDWLELSSGGPVLSLAPLSTTAPSLFSTDFLDGHDLQLHWDSCL

No constants are given. Whether binding was seen depends on the method and setting. Binding can be weak; no strength is given. For some assays here: Binding seen in cells or lysates may run through a third protein.
